Source: patent publication US10071103B2, “Treatments for resistant acne” (VYOME BIOSCIENCES PVT. LTD., priority 2014, dated 2018)

Assays:
[1] = test system: P. acnes clinical isolates; experiment: MIC of P. acnes isolated from acne patients (clinical isolates); conditions: Cutibacterium acnes, clinical isolate susceptible to clindamycin and erythromycin;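 note: anaerobic 96-well plate assay at 37 °C over 72 h, with Alamar blue dye as read-out; MIC in µg/mL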
P. acnes MTCC 1951 [2] = experiment: MIC by micro broth dilution (Alamar blue), clindamycin-susceptible P. acnes; format: cell-based, Propionibacterium acnes; conditions: Cutibacterium acnes, MTCC1951; Table 7; against P. acnes
Procedure: (§1) The plates were incubated at 37° C. for 48 h under anaerobic condition for P. acnes and 37° C. for 24 h for S. aureus The plates were read under Bio-Rad plate reader at 595 nm for optical density to generate the dose-response curves. The MIC of the test compound was recorded by addition of Alamar blue dye.
P. acnes (MTCC 3297, MTCC 1951& CCARM 9010) are cultured in Brain Heart Infusion (BHI) Broth at 37° C. for 48-72 h under anaerobic condition. The test compounds/formulations are initially diluted with suitable solvent and further diluted with BHI broth to get the required concentrations. Samples (100 μl) of different concentrations (prepared by serial dilution) are added to 96-well plate. To the wells, 100 μl of P. acnes BHI broth culture is added [culture turbidity adjusted against 0.5 McFarland standard (approx 1.5×10^8), and further diluted 100-fold with sterile BHI broth]. […]
(§2) Plates are incubated at 37° C. for 48-72 hrs under anaerobic condition. The plate is read under Bio-Rad plate reader @ 595 nm for optical density to generate the dose-response curves. The MIC of the test compound is recorded by addition of Alamar blue dye.
BHI broth and BHI agar media were prepared as per the manufacturer's instruction and autoclaved at 121° C. for 15 minutes. […] Plate is visualized for bacterial inhibitions and MIC values of the tested samples are determined. […]

P. acnes CCARM 9010 = experiment: MIC by micro broth dilution (Alamar blue), clindamycin-resistant/nonresponsive P. acnes; format: cell-based, Propionibacterium acnes; conditions: clindamycin-nonresponsive CCARM 9010
Procedure: as §1
P. acnes (MTCC 3297, MTCC 1951& CCARM 9010) are cultured in Brain Heart Infusion (BHI) Broth at 37° C. for 48-72 h under anaerobic condition. The test compounds/formulations are initially diluted with suitable solvent and further diluted with BHI broth to get the required concentrations. Samples (100 μl) of different concentrations (prepared by serial dilution) are added to 96-well plate. To the wells, 100 μl of P. acnes BHI broth culture is added [culture turbidity adjusted against 0.5 McFarland standard (approx 1.5×10^8), and further diluted 100-fold with sterile BHI broth]. In addition Growth Control and Sterility Control are created using 100 μl each of P. acnes BHI broth culture and plain BHI broth, respectively.
as §2

P. acnes MTCC 1951 [3] = format: cell-based, Propionibacterium acnes
Procedure: 3 to 4 Petri plates containing 48 h P. acnes culture was suspended in sterile Phosphate buffer saline, PBS (pH 7.2) and turbidity was adjusted to optical density of 1 at 600 nm (10^9 cells/ml). 50 ml of this culture suspension was centrifuged at 4000 rpm for 40 min. The supernatant was discarded and pellet resuspended in 250 μl of sterile PBS. 50 μl of these cell suspensions (10^10 cells) was spread over the plates containing various concentrations of antibiotics (around MIC range). Plates were incubated at 37° C. for 48 h and the lowest concentration of the drug that allowed no growth was taken as its MPC. […] If growth was not observed in these plates at the end of the incubation period then the same concentration was confirmed to be the MPC for the said compound.

CCC[C@@H]1C[C@@H](C(=O)N[C@@H]([C@H]2O[C@H](SC)[C@H](O)[C@@H](O)[C@H]2O)[C@H](C)Cl)N(C)C1 [Clindamycin]
0.13 µg/mL: MPC (P. acnes MTCC 1951 [3]; P. acnes, 10^10 cells inoculum)
no effect: Activity / bacterial killing, dose response curve (in words) (P. acnes CCARM 9010)
6.5: MPC/MIC (P. acnes MTCC 1951 [3]; ratio against P. acnes)
< 0.03 µg/mL: MIC ([1]; P. acnes strain V2-9) | MIC ([1]; P. acnes strain V2-10) | MIC ([1]; P. acnes strain V3-9) | MIC ([1]; P. acnes strain V3-10) | MIC ([1]; P. acnes strain V4-6) | MIC ([1]; P. acnes strain V4-8) | MIC ([1]; P. acnes strain V4-13) | MIC ([1]; P. acnes strain V5-2) | MIC ([1]; P. acnes strain V5-5) | MIC ([1]; P. acnes strain V5-7) | MIC ([1]; P. acnes strain V6-5) | MIC ([1]; P. acnes strain V6-6) | MIC ([1]; P. acnes strain V6-7) | MIC ([1]; P. acnes strain V7-3) | MIC ([1]; P. acnes strain V7-4) | MIC ([1]; P. acnes strain V7-14)
0.02 µg/mL: MIC (P. acnes MTCC 1951 [2])
< 0.13 µg/mL: MIC ([1]; P. acnes strain V9-6E) | MIC ([1]; P. acnes strain V12-2E) | MIC ([1]; P. acnes strain V13-3E) | MIC ([1]; P. acnes strain V14-2E) | MIC ([1]; P. acnes strain V15B-1E) | MIC ([1]; P. acnes strain V17-3E) | MIC ([1]; P. acnes strain V18-4E) | MIC ([1]; P. acnes strain V19-2E) | MIC ([1]; P. acnes strain V20-5E)
